Reference: publication PMC7819943, “Rice protein-binding microarrays: a tool to detect cis-acting elements near promoter regions in rice”
This is one part of the list.

Amino acid sequences for entries named in this document (tags omitted).
UniProt Q0JBA9, entry or part of it: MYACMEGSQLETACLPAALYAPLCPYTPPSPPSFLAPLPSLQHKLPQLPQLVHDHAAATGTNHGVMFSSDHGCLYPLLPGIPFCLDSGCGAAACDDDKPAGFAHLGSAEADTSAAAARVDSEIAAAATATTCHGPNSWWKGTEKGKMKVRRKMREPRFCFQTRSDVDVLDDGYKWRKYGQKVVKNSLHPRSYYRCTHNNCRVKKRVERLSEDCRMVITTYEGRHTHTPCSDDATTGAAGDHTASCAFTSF

Target: OsWRKY34 (Oryza sativa, UniProt Q0JBA9 1-250)
Test: protein-binding microarray (RPBM); PBS, 2% BSA, 51.3 ng/ul salmon testes DNA, 50 uM zinc acetate, 200 nM TF, 25 C, 1 h; high values mean tight binding
Conditions: protein: recombinant; tags: N-terminal polyhistidine and DsRed monomer fusion (pET32a); label: CyDye5-dUTP incorporated in the synthesized complementary strand; 3' TTTTT single-stranded linker to array surface; dsDNA, one strand shown
Procedure, shortened: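 A custom Agilent array was converted to double-stranded form by primer extension with Cy5-dUTP and blocked with 2% BSA. Protein at 200 nM in PBS with 2% BSA, salmon testes DNA and 50 µM zinc acetate was applied for 1 h at 25 °C, followed by washing. The proteins were polyhistidine–DsRed N-terminal fusions of transcription factors, expressed in E. coli BL21-CodonPlus and Ni–NTA-purified. The binding signal is per-feature fluorescence intensity (arbitrary units) from an Axon 4000B scanner.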

Question: Which binding signal does the source give for “ATTCTCTCCCCGGCGATTCTCTGGCCGCTTCTCCTCCCTCCGGAGTCACCTAGTGCAG” here?
Answer: Its binding signal is 9260 fluorescence intensity (a.u.).

Question: With “ATTGACCAACTCCGTTGACCAGTCAAACCTCTCTCTCCCTCGGAGTCACCTAGTGCAG” as the sequence, how does the binding signal read?
Answer: The binding signal was 14800 fluorescence intensity (a.u.).

Question: For “ATGTTTCTGCGGCCCGTCATCCGTGTTTGAGTCGGTTATACGGAGTCACCTAGTGCAG”, which binding signal is on record?
Answer: The binding signal was 10700 fluorescence intensity (a.u.).

Question: How did the binding signal turn out when “CGTCGCCGCCAACTACGCCGACCTCACCACCGCCGCGTGGCGGAGTCACCTAGTGCAG” was run?
Answer: The binding signal was 8340 fluorescence intensity (a.u.).

Question: How did the binding signal turn out when “GGTACTTCTGATTGATTCAATAATAATTTGGGGAGCTTAACGGAGTCACCTAGTGCAG” was run?
Answer: The binding signal was 9230 fluorescence intensity (a.u.).

Question: How did the binding signal turn out when “AAACGGAAAGAACTCTATCTGTGATCTGTCTATAGTTGGACGGAGTCACCTAGTGCAG” was run?
Answer: The binding signal was 14300 fluorescence intensity (a.u.).

Question: How did the binding signal turn out when “TCCCTTCTAACTCACCTTGTTGCTGTTATTGTGCCAATGTCGGAGTCACCTAGTGCAG” was run?
Answer: Its binding signal is 9960 fluorescence intensity (a.u.).

Question: For “CGCCTCCACATCTCCACACGCAACACACGGAGACGAATTTCGGAGTCACCTAGTGCAG”, which binding signal is on record?
Answer: Its binding signal is 10000 fluorescence intensity (a.u.).

Question: How did the binding signal turn out when “TAAGGAGGGTGTTGGGAGGGTGGGAGCTTTGCTTGGGGTGCGGAGTCACCTAGTGCAG” was run?
Answer: The binding signal was 10200 fluorescence intensity (a.u.).

Question: “GGACGAACCATTTGCCCATTTTCACATGATGTTTAGTACACGGAGTCACCTAGTGCAG” was tested. Which binding signal did it give?
Answer: Its binding signal is 9100 fluorescence intensity (a.u.).

Question: For “CTCGTCCTCTCTCCTATCTTCTATTCTCTGCGCCACATCACGGAGTCACCTAGTGCAG”, which binding signal is on record?
Answer: Its binding signal is 9660 fluorescence intensity (a.u.).

Question: How did the binding signal turn out when “ACAACCAGGAATTCCTCACATTTGTTGCCACCATACTTTCCGGAGTCACCTAGTGCAG” was run?
Answer: Its binding signal is 11200 fluorescence intensity (a.u.).

Question: With “TTGTCGCCACCCATACCTAATGAAGTTCCTTACATTTTTCCGGAGTCACCTAGTGCAG” as the sequence, how does the binding signal read?
Answer: The binding signal was 8910 fluorescence intensity (a.u.).

Question: How did the binding signal turn out when “ACAGATTGCTCCACTTCGCCTGCCTGCTTCGCCCACCGTCCGGAGTCACCTAGTGCAG” was run?
Answer: The binding signal was 9730 fluorescence intensity (a.u.).

Question: With “ACAATTAACACACGTAAACACTATCTGCTATTGTAAAAAACGGAGTCACCTAGTGCAG” as the sequence, how does the binding signal read?
Answer: The binding signal was 8460 fluorescence intensity (a.u.).

Question: For “AAATAGTCAAAATTTTCCTACTAGGGCTAGTATTTCCACTCGGAGTCACCTAGTGCAG”, which binding signal is on record?
Answer: The binding signal was 8830 fluorescence intensity (a.u.).

Question: With “AATTTTTTTTCAAAATACTTGTTGTCCTCTCCTCACATCCCGGAGTCACCTAGTGCAG” as the sequence, how does the binding signal read?
Answer: The binding signal was 8360 fluorescence intensity (a.u.).

Question: With “CTACCACACAACACATTTCACCTCGCAATTAATAAGATCCCGGAGTCACCTAGTGCAG” as the sequence, how does the binding signal read?
Answer: Its binding signal is 8500 fluorescence intensity (a.u.).

Question: For “CGGTCAACTAACCCAGTCGCCATTGCCGTTAACTTCTTCACGGAGTCACCTAGTGCAG”, which binding signal is on record?
Answer: Its binding signal is 9100 fluorescence intensity (a.u.).

Question: “AAAATATGACGCTACACTTTTCACTTGATTTCAATCACTTCGGAGTCACCTAGTGCAG” was tested. Which binding signal did it give?
Answer: The binding signal was 9510 fluorescence intensity (a.u.).

Question: Which binding signal does the source give for “GGCATCTTTACTTTCTACAAAAATATTTTTGTATGATATACGGAGTCACCTAGTGCAG” here?
Answer: The binding signal was 9090 fluorescence intensity (a.u.).

Question: How did the binding signal turn out when “TGTACATAGAGCTGTCAAACAAATTTAGGGAGGGCTGTGACGGAGTCACCTAGTGCAG” was run?
Answer: Its binding signal is 10800 fluorescence intensity (a.u.).

Question: How did the binding signal turn out when “ACAGAGGTCGTTCCAAGCCGCCACCGCACTCCACCGCAGCCGGAGTCACCTAGTGCAG” was run?
Answer: Its binding signal is 8900 fluorescence intensity (a.u.).

Question: With “GTGTGATTTGTTTGTTGAGGCTGGGGCATGTTCTCGGGGACGGAGTCACCTAGTGCAG” as the sequence, how does the binding signal read?
Answer: The binding signal was 15100 fluorescence intensity (a.u.).

Question: Which binding signal does the source give for “GAGTACTACGAGAAGCAGTCGCGCCACATCCTCGACACCACGGAGTCACCTAGTGCAG” here?
Answer: Its binding signal is 8280 fluorescence intensity (a.u.).

Question: Which binding signal does the source give for “TTAAATTTCTCATCTCGTCAGCATGTGTTTTCATAAAAAACGGAGTCACCTAGTGCAG” here?
Answer: The binding signal was 8070 fluorescence intensity (a.u.).

Question: “ATTCTTCTCGGCCCACTCTGATCTGTCCAGCATCACATTCCGGAGTCACCTAGTGCAG” was tested. Which binding signal did it give?
Answer: The binding signal was 14400 fluorescence intensity (a.u.).

Question: “GCTATTTTCTTTTGTCATCTAATAAGGGAACTAGATTTGTCGGAGTCACCTAGTGCAG” was tested. Which binding signal did it give?
Answer: The binding signal was 8110 fluorescence intensity (a.u.).

Question: How did the binding signal turn out when “ATCTCCAGATATACATGTCTTCCTCATTGTTCCTCCTTACCGGAGTCACCTAGTGCAG” was run?
Answer: The binding signal was 8640 fluorescence intensity (a.u.).

Question: “TGATCCTCTACTTCTCCAGTGCGGCACCGTGCCGCGCGGCCGGAGTCACCTAGTGCAG” was tested. Which binding signal did it give?
Answer: The binding signal was 13200 fluorescence intensity (a.u.).

Question: “CTCTCAGTTTGCATGCAGCTCTGCATTTTCTGCTGATGAACGGAGTCACCTAGTGCAG” was tested. Which binding signal did it give?
Answer: The binding signal was 12400 fluorescence intensity (a.u.).

Question: For “CTTATCTCTCTCGTTTTCCACGCACACGTTTTTCAAACCGCGGAGTCACCTAGTGCAG”, which binding signal is on record?
Answer: The binding signal was 8940 fluorescence intensity (a.u.).

Question: With “CTTTAATTTGCATGTCTCTCCATCACTACCAAATTCGGCTCGGAGTCACCTAGTGCAG” as the sequence, how does the binding signal read?
Answer: The binding signal was 8530 fluorescence intensity (a.u.).

Question: “ACTGGTTTCTTTTGTTGTTCTCATTGAGCATTAGCATGTGCGGAGTCACCTAGTGCAG” was tested. Which binding signal did it give?
Answer: Its binding signal is 8260 fluorescence intensity (a.u.).

Question: Which binding signal does the source give for “CCACACACGCACCCCTACACGCATGCTAGACCTATCAACTCGGAGTCACCTAGTGCAG” here?
Answer: The binding signal was 9390 fluorescence intensity (a.u.).

Question: For “CGACGAATGTCTGTTATCGTCCGTTTTCTGTGAATTATTTCGGAGTCACCTAGTGCAG”, which binding signal is on record?
Answer: The binding signal was 9940 fluorescence intensity (a.u.).

Question: For “CACCATGGCCTACATCCTCGCCGTCAACGCCTCCATCCTCCGGAGTCACCTAGTGCAG”, which binding signal is on record?
Answer: Its binding signal is 10300 fluorescence intensity (a.u.).

Question: “AATGGTCAAACACGTATTTAAAAAGTCAACGGTGTCAAACCGGAGTCACCTAGTGCAG” was tested. Which binding signal did it give?
Answer: The binding signal was 14100 fluorescence intensity (a.u.).

Question: For “AAATAGGGTTTGGAGGGTATTTTCGTCACTAGGAAGTCTTCGGAGTCACCTAGTGCAG”, which binding signal is on record?
Answer: Its binding signal is 8180 fluorescence intensity (a.u.).

Question: How did the binding signal turn out when “TTCTGATATGTCTTTTTTTTTATCGATTCTTTGTATTTACCGGAGTCACCTAGTGCAG” was run?
Answer: Its binding signal is 10400 fluorescence intensity (a.u.).

Question: “TCTTGTCCACCACGCGTCAGTTTAGCATGCCGCACGTCTCCGGAGTCACCTAGTGCAG” was tested. Which binding signal did it give?
Answer: Its binding signal is 11600 fluorescence intensity (a.u.).

Question: With “GAATGCTTTTGTTGTGGTCGGTCACCTTCGATCGGATGCACGGAGTCACCTAGTGCAG” as the sequence, how does the binding signal read?
Answer: Its binding signal is 8600 fluorescence intensity (a.u.).
